# Results from one PubChem assay

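Malaria parasite (P. falciparum) lines kept in red blood cells; parasite DNA is measured by SYBR Green fluorescence after lysis, 72 h after compound addition. Each compound was titrated across a series from about 0.000037 to 29 µM. The number is the fitted AC50, the concentration giving a half-maximal change in signal; a lower value means higher potency, whether the curve shows a decrease or an increase. Calls follow the curve class and fit quality: every row here is inconclusive, covering signal-raising curves and weak, poorly fitted, partial or highest-dose-only inhibition curves.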

Values are in nM. Every entry below has the call inconclusive. These entries are mostly ones the record files as inconclusive; other results of the assay are not listed here. Potencies fitted to partial, single-point or poorly fitting curves are rough.

structure	setting	fitted potency (nM)	remark
CC(C)NCC(O)COc1ccc(CCOCC2CC2)cc1 (stereo not shown)	CP269	19011	inhibitor, single point
CC(C)NCC(O)COc1ccc(CCOCC2CC2)cc1 (stereo not shown)	ECU	17782	inhibitor, single point
CC(C)NCC(O)COc1ccc(CCOCC2CC2)cc1 (stereo not shown)	DIV30	15101	inhibitor, single point
CC(C)NCC(O)COc1ccc(CCOCC2CC2)cc1 (stereo not shown)	Dd2	11220	inhibitor, single point
CC(C)NCC(O)COc1ccc(CCOCC2CC2)cc1 (stereo not shown)	N140	10000	inhibitor, single point
CC(C)NCC(O)COc1ccc(CCOCC2CC2)cc1 (stereo not shown)	DIV14	15101	inhibitor, single point
CC(C)NCC(O)COc1ccc(CCOCC2CC2)cc1 (stereo not shown)	PC26	13459	inhibitor, partial curve
CC(C)NCC(O)COc1ccc(CCOCC2CC2)cc1 (stereo not shown)	DFO2036	17782	inhibitor, single point
CC(C)NCC(O)COc1ccc(CCOCC2CC2)cc1 (stereo not shown)	PC15	10000	inhibitor, single point
CC(C)NCC(O)COc1ccc(CCOCC2CC2)cc1 (stereo not shown)	CP265	14125	inhibitor, single point
CC(C)NCC(O)COc1ccc(CCOCC2CC2)cc1 (stereo not shown)	TAB165	17782	inhibitor, single point
CC(C)NCC(O)COc1ccc(CCOCC2CC2)cc1 (stereo not shown)	CP260	17782	inhibitor, single point
CC(C)NCC(O)COc1ccc(CCOCC2CC2)cc1 (stereo not shown)	CP335	19011	inhibitor, single point
CC(C)NCC(O)COc1ccc(CCOCC2CC2)cc1 (stereo not shown)	HB3	11220	inhibitor, single point
CC(C)NCC(O)COc1ccc(CCOCC2CC2)cc1 (stereo not shown)	P93_24	10000	inhibitor, single point
CC(C)NCC(O)COc1ccc(CCOCC2CC2)cc1 (stereo not shown)	GB4	19011	inhibitor, single point
CN(C)CCC=C1c2ccccc2C=Cc2ccccc21	CP215	6746	inhibitor, partial curve
CN(C)CCC=C1c2ccccc2C=Cc2ccccc21	CP201	13459	inhibitor, partial curve
CN(C)CCC=C1c2ccccc2C=Cc2ccccc21	CP194	2393	inhibitor, partial curve
CN(C)CCC=C1c2ccccc2C=Cc2ccccc21	CP297	30.1	inhibitor, partial curve, poor fit
CN(C)CCC=C1c2ccccc2C=Cc2ccccc21	Dd2	4467	inhibitor, partial curve
CN(C)CCC=C1c2ccccc2C=Cc2ccccc21	CP268	1901	inhibitor, partial curve, poor fit
CN(C)CCC=C1c2ccccc2C=Cc2ccccc21	DIV30	13459	inhibitor, partial curve
CN(C)CCC=C1c2ccccc2C=Cc2ccccc21	CP191	11220	inhibitor, single point
CN(C)CCC=C1c2ccccc2C=Cc2ccccc21	CP269	16944	inhibitor, partial curve, poor fit
CN(C)CCC=C1c2ccccc2C=Cc2ccccc21	CP286	11220	inhibitor, partial curve
CN(C)CCC=C1c2ccccc2C=Cc2ccccc21	CP305	84.9	inhibitor, full curve, poor fit
CN(C)CCC=C1c2ccccc2C=Cc2ccccc21	AA1029	5623	inhibitor, partial curve
CN(C)CCC=C1c2ccccc2C=Cc2ccccc21	CP335	19011	inhibitor, partial curve, poor fit
CN(C)CCC=C1c2ccccc2C=Cc2ccccc21	CP238	7943	inhibitor, partial curve
CN(C)CCC=C1c2ccccc2C=Cc2ccccc21	ATS95	4467	inhibitor, partial curve
CN(C)CCC=C1c2ccccc2C=Cc2ccccc21	CP256	1778	inhibitor, full curve, poor fit
CN(C)CCC=C1c2ccccc2C=Cc2ccccc21	CP203	3793	inhibitor, partial curve
CN(C)CCC=C1c2ccccc2C=Cc2ccccc21	AS120	8912	inhibitor, partial curve
O=S(=O)(O)c1ccc2c(N=Nc3ccc(S(=O)(=O)O)c4ccccc34)c(O)c(S(=O)(=O)O)cc2c1	CP215	16944	inhibitor, single point
O=S(=O)(O)c1ccc2c(N=Nc3ccc(S(=O)(=O)O)c4ccccc34)c(O)c(S(=O)(=O)O)cc2c1	ATS95	15848	inhibitor, single point
CC(C)(C)OC(=O)c1ncn2c1[C@@H]1CCCN1C(=O)c1c(Br)cccc1-2	7G8	8912	inhibitor, partial curve
CC(C)(C)OC(=O)c1ncn2c1[C@@H]1CCCN1C(=O)c1c(Br)cccc1-2	DIV17	16944	inhibitor, single point
CC(C)(C)OC(=O)c1ncn2c1[C@@H]1CCCN1C(=O)c1c(Br)cccc1-2	ICS	17782	inhibitor, single point

For reference, 5 entries once more:

Result for CN(C)CCC=C1c2ccccc2C=Cc2ccccc21 [CP286] was fitted potency 11220 nM (inhibitor, partial curve).
Result for CN(C)CCC=C1c2ccccc2C=Cc2ccccc21 [CP201] was fitted potency 13459 nM (inhibitor, partial curve).
Result for CC(C)(C)OC(=O)c1ncn2c1[C@@H]1CCCN1C(=O)c1c(Br)cccc1-2 [ICS] was fitted potency 17782 nM (inhibitor, single point).
Result for CN(C)CCC=C1c2ccccc2C=Cc2ccccc21 [Dd2] was fitted potency 4467 nM (inhibitor, partial curve).
Result for CC(C)NCC(O)COc1ccc(CCOCC2CC2)cc1 (stereo not shown) [CP269] was fitted potency 19011 nM (inhibitor, single point).

Data taken from PubChem BioAssay AID504749, deposited by NCATS (2011).